Data as given in PubChem BioAssay AID504764 (Drosophila RNAi Screening Center, 2011).

Aim: 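Knock-downs that raise or lower a Notch target reporter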 (primary screen)
Cell system: Drosophila Kc167 cells
Reagent: long dsRNA against Drosophila genes
Time to read-out: about 5 days (4 days dsRNA, then 24 h after transfection)
Conditions: transfection of constitutively active membrane-tethered Notch lacking the extracellular domain, read 24 h later
Measured: 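Light from a Notch-responsive E(spl)m3 luciferase reporter under active Notch, with control-promoter and no-Notch reporter wells to normalise; raw counts from paired wells a and b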
Direction: induced reporter light, run 1, well a and induced reporter light, run 1, well b: higher = more light from the Notch target reporter with active Notch; control promoter light, run 1, well a and control promoter light, run 1, well b: higher = more light from the viral control promoter (cell number, transfection, viability); uninduced reporter light, run 1, well a: higher = more light from the Notch target reporter without active Notch
Rule for the call: 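Wells with low control signal or poorly matching duplicates excluded; duplicates averaged; per source plate, z beyond ±2 for induced/control log2 ratio or beyond ±1.8 for induced/uninduced marks a hit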
Meaning of the calls: active = modifier hit (raised or lowered Notch signal); inactive = not a hit
In all, the deposit lists about 22,000 reagents; shown is a random part of those with a known target gene and a result. Over the whole deposit, 403 (1.9%) were called active. 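Unnormalised raw counts per well; ratio z-scores behind the hit calls and whether each hit raises or lowers signal are not deposited.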 Unmarked entries are inactive. The numbers tell different reagents against one gene apart. No sequences are given here. Not given: the amount of reagent.

Against CG14960 the deposit lists induced reporter light, run 1, well a = 1.07e5; induced reporter light, run 1, well b = 1.33e5; control promoter light, run 1, well a = 2.47e5; control promoter light, run 1, well b = 1.85e5; uninduced reporter light, run 1, well a = 4815.
Against CG9368, the entry reads induced reporter light, run 1, well a = 1.13e5; induced reporter light, run 1, well b = 1.41e5; control promoter light, run 1, well a = 98815; control promoter light, run 1, well b = 93755; uninduced reporter light, run 1, well a = 10725.
For Dlip3 the deposit lists induced reporter light, run 1, well a = 32955; induced reporter light, run 1, well b = 28805; control promoter light, run 1, well a = 32315; control promoter light, run 1, well b = 17265; uninduced reporter light, run 1, well a = 3275.
After knock-down of cno #1, the screen gave induced reporter light, run 1, well a = 1.32e5; induced reporter light, run 1, well b = 1.93e5; control promoter light, run 1, well a = 1.77e5; control promoter light, run 1, well b = 1.61e5; uninduced reporter light, run 1, well a = 14870.
cno #2 gave induced reporter light, run 1, well a = 2515; induced reporter light, run 1, well b = 2605; control promoter light, run 1, well a = 3830; control promoter light, run 1, well b = 3880; uninduced reporter light, run 1, well a = 3080.
With knock-down of CG14401, the record shows induced reporter light, run 1, well a = 30635; induced reporter light, run 1, well b = 33190; control promoter light, run 1, well a = 30000; control promoter light, run 1, well b = 42520; uninduced reporter light, run 1, well a = 2260.
CG11698 scored induced reporter light, run 1, well a = 2.27e5; induced reporter light, run 1, well b = 2.23e5; control promoter light, run 1, well a = 2.74e5; control promoter light, run 1, well b = 3.35e5; uninduced reporter light, run 1, well a = 11625.
For CG13016 the deposit lists induced reporter light, run 1, well a = 1.10e5; induced reporter light, run 1, well b = 1.20e5; control promoter light, run 1, well a = 1.61e5; control promoter light, run 1, well b = 1.43e5; uninduced reporter light, run 1, well a = 9650.
Knock-down of CG4563 resulted in: induced reporter light, run 1, well a = 2.86e5; induced reporter light, run 1, well b = 2.08e5; control promoter light, run 1, well a = 1.84e5; control promoter light, run 1, well b = 1.89e5; uninduced reporter light, run 1, well a = 17825.
After knock-down of CG1075 (retired record), the record shows induced reporter light, run 1, well a = 53325; induced reporter light, run 1, well b = 61515; control promoter light, run 1, well a = 75180; control promoter light, run 1, well b = 52705; uninduced reporter light, run 1, well a = 4180.
Depletion of CG11400 came out at: induced reporter light, run 1, well a = 1.24e5; induced reporter light, run 1, well b = 1.05e5; control promoter light, run 1, well a = 88530; control promoter light, run 1, well b = 1.49e5; uninduced reporter light, run 1, well a = 10130.
CG1421 gave induced reporter light, run 1, well a = 44525; induced reporter light, run 1, well b = 46110; control promoter light, run 1, well a = 41265; control promoter light, run 1, well b = 50620; uninduced reporter light, run 1, well a = 3170.
Against tx (retired record) the deposit lists induced reporter light, run 1, well a = 1.46e5 (active); induced reporter light, run 1, well b = 1.51e5; control promoter light, run 1, well a = 2.18e5; control promoter light, run 1, well b = 2.18e5; uninduced reporter light, run 1, well a = 13920.
Depletion of CG8476 came out at: induced reporter light, run 1, well a = 2.54e5; induced reporter light, run 1, well b = 2.29e5; control promoter light, run 1, well a = 2.43e5; control promoter light, run 1, well b = 1.98e5; uninduced reporter light, run 1, well a = 16638.
Knock-down of CG16974 came out at: induced reporter light, run 1, well a = 2.32e5; induced reporter light, run 1, well b = 2.29e5; control promoter light, run 1, well a = 2.17e5; control promoter light, run 1, well b = 2.25e5; uninduced reporter light, run 1, well a = 17535.
Cyp6a2 scored induced reporter light, run 1, well a = 2.29e5; induced reporter light, run 1, well b = 1.98e5; control promoter light, run 1, well a = 2.38e5; control promoter light, run 1, well b = 2.02e5; uninduced reporter light, run 1, well a = 18505.
For CG3719, the entry reads induced reporter light, run 1, well a = 1.90e5; induced reporter light, run 1, well b = 1.78e5; control promoter light, run 1, well a = 2.40e5; control promoter light, run 1, well b = 2.99e5; uninduced reporter light, run 1, well a = 13740.
Silencing of dop gave: induced reporter light, run 1, well a = 1.11e5; induced reporter light, run 1, well b = 1.11e5; control promoter light, run 1, well a = 46090; control promoter light, run 1, well b = 72100; uninduced reporter light, run 1, well a = 8020.
For CG8460, the values are induced reporter light, run 1, well a = 1.62e5; induced reporter light, run 1, well b = 1.78e5; control promoter light, run 1, well a = 2.01e5; control promoter light, run 1, well b = 1.94e5; uninduced reporter light, run 1, well a = 17135.
Knock-down of CG10205 came out at: induced reporter light, run 1, well a = 67295; induced reporter light, run 1, well b = 65900; control promoter light, run 1, well a = 1.02e5; control promoter light, run 1, well b = 1.00e5; uninduced reporter light, run 1, well a = 6180.
Against seq, the values are induced reporter light, run 1, well a = 16650; induced reporter light, run 1, well b = 16605; control promoter light, run 1, well a = 18500; control promoter light, run 1, well b = 15815; uninduced reporter light, run 1, well a = 3990.
Silencing of danr resulted in: induced reporter light, run 1, well a = 1.64e5; induced reporter light, run 1, well b = 1.97e5; control promoter light, run 1, well a = 2.27e5; control promoter light, run 1, well b = 2.22e5; uninduced reporter light, run 1, well a = 15795.
After knock-down of Naa80 the results were induced reporter light, run 1, well a = 62945; induced reporter light, run 1, well b = 95360; control promoter light, run 1, well a = 1.04e5; control promoter light, run 1, well b = 72970; uninduced reporter light, run 1, well a = 4505.
With knock-down of Tsc1 the results were induced reporter light, run 1, well a = 79430 (active); induced reporter light, run 1, well b = 90325; control promoter light, run 1, well a = 85835; control promoter light, run 1, well b = 96710; uninduced reporter light, run 1, well a = 4065.
